According to patent publication US12213985B2, “Oral cannabinoid formulations” (Jazz Pharmaceuticals Research UK Limited, priority 2016, dated 2025):
At least one read-out could not be matched to a standard name with certainty. Where a SMILES comes first, the peptide text is derived from it.

Test: Clarity / solubilisation of alternative sweetener batches
Assay type: physicochemical
Settings: sweetener batches of Table 2 in ethanol, strawberry flavour, sesame oil

## COC(=O)[C@H](Cc1ccccc1)NC(=O)[C@@H](N)CC(=O)O [Aspartame] (H-Asp-Phe-OMe)
  appearance of formulation / solubilisation of sweetener: did not completely solubilise in ethanol
